A value given as a limit tells only on which side of the number the result lay.

In this series the test system is HUVECs. Briefly: Transcellular transport of horse radish peroxidase (HRP) across a cell monolayer on filter. The format is cell-based, human. To be noted: +5 μM biovector. Here is the method: Transport of horse radish peroxidase (HRP) across a cellular membrane was measured using the apparatus shown schematically in FIG. 4, with the addition of biovectors (BVS1 etc). The apparatus comprises upper and lower compartments (1, 2 respectively) separated by a filter 3 on which the cells 4 are grown. HRP and biovectors are added to the medium in the upper compartment 1, and HRP is assayed in the lower compartment 2.
Transcellular transport was determined as above for the HUVECs studies. […]
Turning to GVFVLGLFGFLA [BVS5], the “Specific resistance Across monolayer” value was more than 350 Ohms/cm^−2. The result for AVGIGALFLGFLGAAG [BVS1] reads more than 350 Ohms/cm^−2; that for GVFVLGFLGFLATAGS [BVS9], more than 350 Ohms/cm^−2.

AGIGALFLGFLGAAG [BVS16]: the “Specific resistance Across monolayer” value is on record as more than 350 Ohms/cm^−2.

Source of the values: US7049295B2, “Compounds and use thereof to modify transport across cell membranes” (Biotransys Limited, priority 1999, dated 2006).
